Measured values: patent US20150136233A1, “ORGANIC PHOTOVOLTAIC DEVICES COMPRISING FULLERENES AND DERIVATIVES” (The Regents of the University of California, priority 2013, published 2015)
“And” between values parts separate entries of the source, which are not always exact repeats. Equal entries are not always repeated.

Experiments:
[1] = Bulk heterojunction solar cell device, PCDT-2FBT as donor, J-V at 1 sun (AM 1.5G); settings: Table 4, PCDT-2FBT donor, single or mixed mono and bis-fullerene acceptor
[2] = Bulk heterojunction solar cell device, P3HT as donor, J-V at 1 sun (AM 1.5G); settings: Table 5, single or mixed pristine and mono-fullerene acceptor

COC(=O)CCCC1(c2ccccc2)C23c4c5c6c7c8c9c(c%10c%11c2c2c%12c4c4c%13c5c5c7c7c8c8c%14c9c%10c9c%10c%11c2c2c%11c%12c4c4c%12c%13c5c5c7c7c8c8c%14c9c9c%10c2c2c%11c4c4c%12c5c7c5c8c9c2c45)C613 (centres unmarked) [PC61BM, [6,6]-phenyl C61-butyric acid methyl ester]
Ff [1]: 0.47 ± 0.003
Voc [1]: 0.58 ± 0.001 V
Jsc ([1]; listed as PCBM): 4.64 mA/cm^2 and 4.64 ± 0.12 mA/cm^2
η (power conversion efficiency) ([1]; listed as PCBM): 1.27% and 1.27 ± 0.03%
Jsc [2]: 9.74 ± 0.26 mA/cm^2
Voc [2]: 0.62 ± 0.004 V
ff [2]: 0.67 ± 0.01
η (power conversion efficiency) [2]: 4.04 ± 0.16%
